# Measured values taken from paper PMC7819943, “Rice protein-binding microarrays: a tool to detect cis-acting elements near promoter regions in rice”.
# Amino acid sequences for entries named in this document (tags omitted).
# UniProt Q0JBA9, entry or part of it: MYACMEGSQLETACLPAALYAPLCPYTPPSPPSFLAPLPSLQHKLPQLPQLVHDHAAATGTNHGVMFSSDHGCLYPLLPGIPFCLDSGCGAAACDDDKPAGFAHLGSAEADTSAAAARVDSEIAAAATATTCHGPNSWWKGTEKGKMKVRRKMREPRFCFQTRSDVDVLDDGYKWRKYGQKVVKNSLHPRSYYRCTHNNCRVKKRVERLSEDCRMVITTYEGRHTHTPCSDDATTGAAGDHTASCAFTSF
# Some of the results follow.
# Molecular target: OsWRKY34 (Oryza sativa, UniProt Q0JBA9 1-250)
# Assay: protein-binding microarray (RPBM); PBS, 2% BSA, 51.3 ng/ul salmon testes DNA, 50 uM zinc acetate, 200 nM TF, 25 C, 1 h; high values mean tight binding
# Settings: protein: recombinant; tags: N-terminal polyhistidine and DsRed monomer fusion (pET32a); label: CyDye5-dUTP incorporated in the synthesized complementary strand; 3' TTTTT single-stranded linker to array surface; dsDNA, one strand shown
# Outline: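 Ni–NTA purification followed expression in E. coli BL21-CodonPlus of transcription factors fused N-terminally to a polyhistidine tag and DsRed. At 200 nM in PBS with 2% BSA, salmon testes DNA and 50 µM zinc acetate, the protein was incubated for 1 h at 25 °C with a custom Agilent array that had been primer-extended with Cy5-dUTP and blocked with 2% BSA. After washing, the array was read on an Axon 4000B scanner. The binding signal is per-feature fluorescence intensity in arbitrary units.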
row,Sequence,binding signal
1,CTTATCAATCTGTTTATTAATATTTACGCAGTATTGCAGTCGGAGTCACCTAGTGCAG,9020 fluorescence intensity (a.u.)
2,GCTTGTGTGTTTTGCACGTCGACTAACTAACGGCCTCTCACGGAGTCACCTAGTGCAG,9330 fluorescence intensity (a.u.)
3,TCTCTGTTTTTTGGCAGTTTGTATGCCAACATGTGCTAATCGGAGTCACCTAGTGCAG,9040 fluorescence intensity (a.u.)
4,TTGTATATGAATCCGGACATCTAAACTAGGCATAAATCCACGGAGTCACCTAGTGCAG,8020 fluorescence intensity (a.u.)
5,CGCTTCACTCACCTCGTCGTCTTCACTTCACTTCACGCACCGGAGTCACCTAGTGCAG,14300 fluorescence intensity (a.u.)
6,ACTCCTGATCCCATGTCACCGACAACATGCATATAGAAGTCGGAGTCACCTAGTGCAG,8320 fluorescence intensity (a.u.)
7,AGAGCCGAACCCACCATTCCTGTACATATCGTCCTCCTCTCGGAGTCACCTAGTGCAG,9500 fluorescence intensity (a.u.)
8,ACATATGCTAAAAAGTCAACGGTGTCAAACATTTTGAAACCGGAGTCACCTAGTGCAG,15900 fluorescence intensity (a.u.)
9,CGTCTCTCTCTCTCGCCCAAGTCCACACTTCGTCTCTCTCCGGAGTCACCTAGTGCAG,8090 fluorescence intensity (a.u.)
10,TTGTTGTTTACCGTCACACTTAATTACCAGGTCATTTACACGGAGTCACCTAGTGCAG,9280 fluorescence intensity (a.u.)
11,CTGTGAAAGGGAAGCTCGATTTCGTTGGTTTGGGGAGGAACGGAGTCACCTAGTGCAG,9280 fluorescence intensity (a.u.)
12,TCTTGTGTGTTTGTTCCGATTTGCTGCTCAATCTGTCCATCGGAGTCACCTAGTGCAG,10300 fluorescence intensity (a.u.)
13,GGGTTGGGTCTCTCTCTCTCTCGGTGTCGCCGTCTTGGCTCGGAGTCACCTAGTGCAG,14800 fluorescence intensity (a.u.)
14,CTGCATTCCGAGGGCTCGGGTGGTGGTGGTGGTGGTAGCTCGGAGTCACCTAGTGCAG,8440 fluorescence intensity (a.u.)
15,GGACTTGTAATTCAGAGCCTACTGTTTTTTTTTAAATCTACGGAGTCACCTAGTGCAG,10100 fluorescence intensity (a.u.)
16,ACGCGCACTACTTTCCTAACTCACATCTCTTGTTTTCCACCGGAGTCACCTAGTGCAG,11000 fluorescence intensity (a.u.)
17,CACTATTCACGTTCAACGTTTGACCGTTTATCTTATTTGACGGAGTCACCTAGTGCAG,8090 fluorescence intensity (a.u.)
18,TCTCTCATGTCTGCCTTTTGAGCACATAAACACACCACCCCGGAGTCACCTAGTGCAG,8610 fluorescence intensity (a.u.)
19,AGCACCAGTTGACCGCATTTCATTTCCCTCCTCCCTCAATCGGAGTCACCTAGTGCAG,8380 fluorescence intensity (a.u.)
20,ACAATGCCACCCTTACATGCCGGGAGACCGGGGCCTCTGCCGGAGTCACCTAGTGCAG,9600 fluorescence intensity (a.u.)
21,CGTGTGGTTGGTGTGAGAGAATGAAATGGATGAAATCTGGCGGAGTCACCTAGTGCAG,9450 fluorescence intensity (a.u.)

row,Sequence,binding signal
1,AAAACCCCAGATGGCACCCACCCACAACGCAGCCTTCGCCCGGAGTCACCTAGTGCAG,8080 fluorescence intensity (a.u.)
2,TACATAGTTGGATGTGGGATGGTGGTTAGGGGTAGAATGACGGAGTCACCTAGTGCAG,9140 fluorescence intensity (a.u.)
3,TTGTGGAGCTCCCTTATGAATGTATTTGCTCTCATTGAATCGGAGTCACCTAGTGCAG,8410 fluorescence intensity (a.u.)
4,CCTTTGACTTTTTGATAAACGTTTGACCTTTCGTCTTATTCGGAGTCACCTAGTGCAG,22800 fluorescence intensity (a.u.)
5,ATCCGAATCCGCTCCATTTTCACCCCTATCTGCTACATTACGGAGTCACCTAGTGCAG,8490 fluorescence intensity (a.u.)
6,ACCAAATCGCGTTTAATTTTTCGCGCGCCTCCTCTAAACCCGGAGTCACCTAGTGCAG,8150 fluorescence intensity (a.u.)
7,ACTGCATGCTTAGTTGATTACTCTCTCCATTCCATTTTAACGGAGTCACCTAGTGCAG,9190 fluorescence intensity (a.u.)
8,ACCATCCACACAAGTTCTTTATTTCTGAGTAAATCGCACTCGGAGTCACCTAGTGCAG,9760 fluorescence intensity (a.u.)
9,CACACTATAGCTAGTACTAGTACTAGTACTACTTAAACTACGGAGTCACCTAGTGCAG,8120 fluorescence intensity (a.u.)
10,ATAATAATTAATAAAGATTTTGTTGTTGGTTTGGGGATTTCGGAGTCACCTAGTGCAG,9550 fluorescence intensity (a.u.)
11,GTAAGTATTATTTTTTCCGTGTCTTCGTCCTATGTGGTAGCGGAGTCACCTAGTGCAG,10900 fluorescence intensity (a.u.)
12,GGTTCGCCGCTTAGCTCGCTTGTATCCCCGTACGAGTACTCGGAGTCACCTAGTGCAG,9490 fluorescence intensity (a.u.)
13,CGGTGTAGTCCAGTTCGGCGGTCTCGTCAATCGACCTCGACGGAGTCACCTAGTGCAG,8110 fluorescence intensity (a.u.)
14,TGTACCGTTGGTTTCCGTCTTTTTAAACATGTGAGAGGGGCGGAGTCACCTAGTGCAG,9410 fluorescence intensity (a.u.)
15,ACTTGTCCATTTCTCAGTTAAAGTTTGTATCATTATGTCTCGGAGTCACCTAGTGCAG,8030 fluorescence intensity (a.u.)
16,CCAATCTCACTTGCGTCTCATTTTTTCCCAACTTACTAAACGGAGTCACCTAGTGCAG,10800 fluorescence intensity (a.u.)
17,TAGCTCGTCTTTCGTCTCTGTGTGCGCGTGTTGTTTTTTTCGGAGTCACCTAGTGCAG,14100 fluorescence intensity (a.u.)
18,GGGGAGTATCGGTTCTGGCATCGTACTAAACGGTATTGTCCGGAGTCACCTAGTGCAG,9220 fluorescence intensity (a.u.)
19,TGACGCCGTTAACTTTTTCTCACATATTTGACTATTTGTCCGGAGTCACCTAGTGCAG,10900 fluorescence intensity (a.u.)
20,AACGAGGGATGGGTAGTAAGGGATGGGAACTAATCTTGCCCGGAGTCACCTAGTGCAG,8530 fluorescence intensity (a.u.)
21,CCACCGCCGATCCTTTCGTTCCCCACTCTTCCAGAACGGACGGAGTCACCTAGTGCAG,8490 fluorescence intensity (a.u.)

# Shown with bars between the fields: part of the list above
row | Sequence | binding signal
13 | CGGTGTAGTCCAGTTCGGCGGTCTCGTCAATCGACCTCGACGGAGTCACCTAGTGCAG | 8110 fluorescence intensity (a.u.)
14 | TGTACCGTTGGTTTCCGTCTTTTTAAACATGTGAGAGGGGCGGAGTCACCTAGTGCAG | 9410 fluorescence intensity (a.u.)
15 | ACTTGTCCATTTCTCAGTTAAAGTTTGTATCATTATGTCTCGGAGTCACCTAGTGCAG | 8030 fluorescence intensity (a.u.)
